Results: the supplement of paper PMC3334620
In all, about 33,000 sequences were measured (“E-score (-0.5 to 0.5)”: median about -0.015, highest 2% from about 0.3 on). Some of the results follow.

target: T1, Abf1 (UniProt P14164); assay: PBM E-score (8-mer binding enrichment) (E-score (-0.5 to 0.5)); higher = stronger / more preferred TF binding; conditions: protein concentration: 200 nM; construct: GST-full length
T1 sequence: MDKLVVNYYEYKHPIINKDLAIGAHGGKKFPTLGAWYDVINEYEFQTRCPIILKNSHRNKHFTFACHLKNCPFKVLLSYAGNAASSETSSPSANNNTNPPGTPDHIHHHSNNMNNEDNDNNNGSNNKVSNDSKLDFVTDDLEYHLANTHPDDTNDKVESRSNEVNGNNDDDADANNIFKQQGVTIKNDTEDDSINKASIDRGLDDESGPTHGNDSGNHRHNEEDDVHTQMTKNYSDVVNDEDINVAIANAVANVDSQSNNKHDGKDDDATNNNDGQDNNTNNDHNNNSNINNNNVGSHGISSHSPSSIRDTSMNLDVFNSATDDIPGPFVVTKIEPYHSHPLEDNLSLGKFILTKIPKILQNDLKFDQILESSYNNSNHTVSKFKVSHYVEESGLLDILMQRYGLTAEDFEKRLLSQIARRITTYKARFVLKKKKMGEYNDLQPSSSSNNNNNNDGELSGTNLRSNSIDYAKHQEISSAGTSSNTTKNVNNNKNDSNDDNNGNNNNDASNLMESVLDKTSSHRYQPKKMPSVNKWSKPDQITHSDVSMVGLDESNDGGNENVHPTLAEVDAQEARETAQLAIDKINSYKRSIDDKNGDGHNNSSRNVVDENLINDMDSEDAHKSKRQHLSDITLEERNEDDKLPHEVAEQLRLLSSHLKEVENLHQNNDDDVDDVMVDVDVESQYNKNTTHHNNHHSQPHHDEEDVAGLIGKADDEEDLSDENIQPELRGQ
Outline: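 Each ungapped eight-base word and its reverse complement, pooled, received an E-score from the Universal PBM Analysis Suite. Underlying scans, normalised with masliner, recorded fluorescent anti-GST bound to GST-tagged yeast transcription factors. These were applied at about 100-200 nM to universal all-10-mer Agilent arrays double-stranded by primer extension.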

| Sequence | PBM E-score |
| --- | --- |
| CGTTATAC | 0.303 |
| CAGTAATG | -0.0287 |
| CTTAGTCC | 0.0832 |
| TCACTAGA | 0.287 |
| TACCGCTA | -0.0972 |
| TAGCCGAA | 0.0055 |
| CGTGTGGA | 0.0371 |
| AGACACTC | -0.117 |
| AGAACCGC | -0.00112 |
| AAAAACTA | 0.167 |
| GAGACACA | -0.0393 |
| ACTTCAAC | -0.0269 |
| GTCGCCGA | 0.12 |
| GCAGTAAC | -0.187 |
| AACCCGTC | 0.0672 |
| ATACTCTA | 0.0906 |
| GTGGATCA | 0.227 |
| AGGCGTTG | 0.132 |
| ACACCTCC | -0.245 |
| ACCCTCGC | -0.287 |
| CATGAGAG | -0.0275 |
| ATACAATA | 0.154 |
| GCGGATGA | 0.202 |
| CTGATGAC | 0.203 |
| ACCAATCT | -0.188 |

| Sequence | PBM E-score |
| --- | --- |
| CAGATTCC | -0.104 |
| CCGTTAGC | -0.0533 |
| CGCTAATC | 0.0487 |
| AAGCAACT | 0.171 |
| CTATCGCC | -0.0597 |
| AACCTCCC | -0.0721 |
| CGGTGATA | 0.334 |
| GGAATTTA | 0.0465 |
| AAAAAACG | 0.239 |
| AAATCGTG | 0.192 |
| AGTAGTTG | 0.067 |
| CTGACCTC | -0.108 |
| TACCGCGA | -0.111 |
| GTGAAAGA | 0.179 |
| GCCGGACC | -0.201 |
| CTTGTATC | -0.147 |
| CACCTCAC | 0.11 |
| ATCAGAAG | -0.0266 |
| AGGCAGCG | -0.119 |
| CAAGGAAG | -0.0169 |
| GAGATACC | 0.0737 |
| GTAGGGCA | -0.0239 |
| ATCCCTTG | -0.13 |
| TGAGTGAA | -0.189 |
| GATGTCCA | 0.0505 |

| Sequence | PBM E-score |
| --- | --- |
| ACGGCGCA | 0.0786 |
| CGAAAGAC | 0.0276 |
| GGTGTAAC | 0.224 |
| ATCCCACA | -0.108 |
| ACGGGGTC | -0.0266 |
| ATTCAGCC | -0.0917 |
| CTTTTACA | 0.188 |
| ACATGAGG | -0.246 |
| CATTAGTC | -0.14 |
| ACCGTTGG | -0.0996 |
| AGGGTCTA | -0.119 |
| GAATATGA | 0.0519 |
| GCAGGCCA | -0.144 |
| CCCACGGC | 0.175 |
| ATGCACGG | 0.258 |
| CCCAAACG | 0.0235 |
| GAAAGAGC | -0.153 |
| CGCTTCAG | -0.147 |
| AAATGACG | 0.187 |
| CGAGGTAG | -0.135 |
| AACCTGAG | -0.0884 |
| CTCAACGC | 0.0795 |
| GCACCTCA | 0.141 |
| CATCTTAA | 0.0501 |
| AAGGCGGA | -0.254 |

| Sequence | PBM E-score |
| --- | --- |
| CGTCGACG | 0.16 |
| GTAGTTGA | 0.124 |
| AAGGGAGG | -0.307 |
| AGTGCATC | 0.0918 |
| ACAACCCA | -0.0167 |
| GTCTACTA | 0.11 |
| ACAACGGC | 0.218 |
| ATGATGAG | 0.141 |
| CAGCACGC | 0.0115 |
| CGCACCCA | -0.272 |
| ACGTTATA | 0.26 |
| CCAGGATA | 0.126 |
| CATGCGGA | -0.155 |
| ACACACAG | -0.0168 |
| AGTGCACC | -0.127 |
| CAAATGAA | -0.155 |
| TCCCCCCA | -0.448 |
| AAAACCCC | -0.137 |
| TCTACACA | -0.0425 |
| CCCGCAGA | -0.203 |
| GCCTTGAA | -0.166 |
| AATCCTAG | -0.0394 |
| ATGCGATA | 0.158 |
| GCGGTTTA | -0.161 |
| ATGCGAGG | 0.00416 |

Part of the list above, with each value named.
AGGCGTTG
  PBM E-score: 0.132
ACACCTCC
  PBM E-score: -0.245
ACCCTCGC
  PBM E-score: -0.287
CATGAGAG
  PBM E-score: -0.0275

Five records picked at random from the list so far, as already listed:

| Sequence | PBM E-score |
| --- | --- |
| ACCCTCGC | -0.287 |
| GCGGATGA | 0.202 |
| TCTACACA | -0.0425 |
| ATGCGAGG | 0.00416 |
| CTATCGCC | -0.0597 |

Next records:

| Sequence | PBM E-score |
| --- | --- |
| CAAGGGCC | -0.282 |
| AAGTTCCA | -0.0476 |
| ATAGTTTG | 0.0679 |
| AGCCACGC | -0.0379 |
| AAATTGCC | 0.0392 |
| CCGCGACC | -0.0179 |
| TAAAGTTA | 0.11 |
| GAGGCTCC | -0.183 |
| AAACGTTC | 0.0878 |
| AGCTAGAA | 0.0282 |
| AGCTGAGA | -0.142 |
| GGACGACC | 0.0608 |
| CAGCAACG | 0.231 |
| CCCGGTCG | -0.112 |
| ATGGCTCC | -0.00305 |
| AGCAGCGG | -0.0956 |
| ACCGCTCT | -0.234 |
| CTGATCTA | -0.106 |
| CTACCCCA | -0.155 |
| GTGCTGTA | 0.12 |
| GAGACCGC | -0.175 |
| CGCTTGTC | 0.0052 |
| CCAGCATC | -0.074 |
| AATCGTAA | 0.145 |
| CATGAATC | 0.0674 |

| Sequence | PBM E-score |
| --- | --- |
| CCAATGGC | -0.202 |
| AGTCAGCC | -0.181 |
| CCGAGTCA | -0.117 |
| TACCCGGA | -0.014 |
| GATAAAAC | 0.246 |
| CAATCATA | 0.166 |
| TAAGGGCA | -0.0518 |
| ATCGGTAG | -0.00682 |
| ACCAGGGC | -0.229 |
| AACACTGC | -0.155 |
| ACTACGGA | 0.105 |
| ATTCAAGC | 0.0602 |
| TCTGGTCA | 0.0314 |
| CACTAGGC | -0.201 |
| AGGAGTGG | -0.171 |
| CACCAAAA | 0.138 |
| ATAAAGAA | 0.178 |
| AAAAGGTA | 0.106 |
| ACTCCGAA | -0.00935 |
| CATGTAAA | 0.102 |
| ACTATTAG | 0.0644 |
| TAGTCATA | 0.0833 |
| GGAAGACA | -0.0867 |
| AATACCAT | 0.0929 |
| AAATGAGT | 0.0345 |

| Sequence | PBM E-score |
| --- | --- |
| ACGAAAGT | 0.146 |
| GCAAGCGC | -0.201 |
| GGACACCC | -0.172 |
| AAGCGAGC | -0.0257 |
| TGGACCCA | -0.0266 |
| AACCAATC | -0.0716 |
| ATACATAG | 0.0748 |
| CATGACAG | 0.0583 |
| ATAAGAGA | 0.0975 |
| GTGAAATA | 0.196 |
| ATAAAACC | -0.0345 |
| CTACGCGA | -0.0125 |
| AACTTCAA | 0.00511 |
| CAGCTTAA | -0.00327 |
| GAACCTGA | -0.24 |
| CATCGCAA | 0.0111 |
| ACACGACT | 0.0619 |
| GGACAACA | 0.144 |
| ACCTTCGA | -0.0559 |
| TGCGCCCA | -0.0332 |
| TGACAAAA | 0.304 |
| AGATACAT | 0.145 |
